## Primary screen of a compound library

Toxoplasma: 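Assay of Toxoplasma gondii numbers, read through their beta-galactosidase reporter with a colour substrate. Concentration: 10 µM. Higher reads as fewer parasites (inferred from which compounds were picked for retests). Of about 67,000 compounds tested this way, about 260 (0.38%) reached 50% or more in at least one test.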
Leishmania in macrophages: 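Cell assay of Leishmania donovani living inside macrophages; the read-out is not stated. Compounds at 30 µM. Direction is inferred from retests: higher values go with stronger inhibition. Of about 69,000 compounds tested this way, about 1,000 (1.5%) reached 50% or more in at least one test.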

The filed quantity is “Percent Effect” (%). The record does not define 0% and 100%; most values in the screen are far below 50% and negative numbers occur (in some assays of this library far below -100). The compounds are a random part of those screened. Two or more numbers in one place are separate tests of the same structure; such repeats can differ widely.

| compound | Toxoplasma | Leishmania in macrophages |
|---|---|---|
| `[H][C@]12CN(C(=O)c3cnn(C)c3)CC[C@@]1(O)CCN(C(=O)C1CCCC1)C2` | 2.872 | -1.278 |
| `O=C1COc2ccc(C(=O)NS(=O)(=O)c3ccc(F)cc3F)cc2N1` | -3.076 | 8.57 |
| `Clc1ccc(CN2CCCC2Cn2cncn2)c2ncccc12` (stereo unspecified) | -16.78 | 20.31 |
| `CC(C#N)CNC(=O)Nc1ccc(-c2ccc[nH]2)cc1` (stereo unspecified) | 5.609 | 25.85 |
| `O=C(c1cncnc1)N1CCCC(c2nccs2)C1` (stereo unspecified) | -22.98 | 22.74 |
| `Cc1nnc2n1CCN(C(=O)c1cn(-c3ccccc3Cl)nn1)C2` | 13.69 | 3.161 |
| `CCOC(=O)Cc1n[nH]c(-c2cncc(Br)c2)n1` | 13.87 | 100.5 |
| `COc1ccc(NC(=O)CCC2CCCN(S(=O)(=O)C3CC3)C2)cc1Cl` (stereo unspecified) | 1.888 | 36.8 |
| `CC(C)C1CN(c2ncccc2Cl)CCC(=O)N1Cc1ccc(F)cc1` (stereo unspecified) | -1.145 | 33.25 |
| `O=C(O)C(F)(F)F.[H][C@@]12COC[C@]1(COCC1CCOCC1)CN(C1CCC1)C2` | -1.953 | 21.36 |
| `CNC(=O)CCN(C)c1nc(-c2ccncc2)nc2c1CCNC2` | -16.42 | 34.17 |
| `CCN(CC)C(=O)C1CCCN(CC(=O)Nc2c(C)nn(CC)c2C)C1` (stereo unspecified) | 29.53 | 17.56 |
| `Cc1ccccc1N1CC2(CCN(S(=O)(=O)c3ccccc3)C2)CC1=O` (stereo unspecified) | -12.32 | 17.51 |
| `Cc1cc(C2CCNCC2)nc(-c2ccsc2)n1.Cl` | 11.95 | 11.47 |
| `O=C(Cc1ccccn1)NCC1OCCc2cn(CC3CC3)nc21.O=C(O)C(F)(F)F` (stereo unspecified) | 4.74 | -7.784 and -4.774 |
| `CCn1nc(C)c(NC(=O)c2nnn(Cc3ccccc3)c2OC)c1C` | 55.69 | -62.95 |
| `Cc1ccc(N2CCN(C(=O)CCc3n[nH]c(C)c3C)CC2=O)cc1` | -7.918 | -2.965 |
| `CCCS(=O)(=O)N1CCc2c(COCC)cncc2C1.O=C(O)C(F)(F)F` | -10.34 | 19.04 |
| `COCCN(C)C[C@@H]1CN(C(=O)c2c(C)cccc2OC)C[C@@H]1CO` | 1.171 | 1.409 |
| `COCCN1CC2(CCCN(C(=O)CCCc3cccs3)C2)CCC1=O` (stereo unspecified) | -10.58 | -137.8 |
| `Cc1n[nH]c(C)c1Sc1ccccc1NC(=O)N1CCN(C)CC1` | -17.01 | -12.22 |
| `Cc1nccn1C1CCCN(C(=O)c2cc(Cl)c3c(c2)OCO3)C1` (stereo unspecified) | -0.0753 | 31.09 |
| `CCc1cc(NC(CCO)c2ccc(OC)cc2)n2nccc2n1` (stereo unspecified) | -24.91 | 20.04 |
| `Cn1ccc(CN2CCC(NC(=O)NC3CCCCC3)CC2)cc1=O` | -12.26 | -1.825 |
| `COc1ncc(NS(=O)(=O)c2ccc(OC)c(C)c2)c(OC)n1` | 3.287 | 33.01 |
| `N#Cc1ccccc1C(=O)N1C[C@H](CO)C[C@H](CN2CCCC2)C1` | 7.169 | 18.98 |
| `O=S(=O)(NCC1COc2ccccc2C1)N1CCCC1` (stereo unspecified) | 21.54 | 16.82 |
| `I.c1ccc(OCCNC2=NCCCN2)cc1` | -4.329 | 1.771 |
| `CC(C)CN1CCCC1c1ccc(C(=O)Nc2cccnc2)s1` (stereo unspecified) | -1.653 | 0.7712 |
| `[H][C@@]12CCN(Cc3cccnc3)C[C@@]1([H])[C@H](C(=O)N1CCCCO1)CCO2` | -11.6 | -25.11 |
| `CCc1nc(CN2CCCC(Nc3ncnc4ccsc34)C2)no1` (stereo unspecified) | -1.921 | 49.31 |
| `CCOC(=O)c1cccc(N2CCCC3(CCC(=O)N(C4CC4)C3)C2)n1` (stereo unspecified) | -3.582 | 17.16 |
| `CCOC1CCN(C(=O)c2cnn(-c3ccccc3Cl)c2)CC1` | 9.707 | -1.182 |
| `O=C(c1ccc2c(c1)CCCC2)N1CCn2ncnc2C1` | 1.769 | 12.91 |
| `O=C(Nc1ccccc1)N1CCN(Cc2noc(C3CC3)n2)CC1` | -54.44 | 6.351 |
| `O=C(O)C(F)(F)F.O=C(O)C(F)(F)F.O=C(O)C(F)(F)F.[H][C@]12C[C@@H](Cn3cccn3)N(C(C)C)[C@@]1([H])CCN(C1CCOCC1)C2` | -6.635 | 22.06 |
| `CC(C)(C)NC(=O)c1ccn(COc2c(Cl)cccc2Cl)n1` | 16.93 | 6.361 |
| `O=C(O)C(F)(F)F.[H][C@@]12CC(=O)N(CC(=O)N(C)C)[C@@]1([H])CCN2Cc1cccc(C#N)c1` | -21.48 | 6.367 |
| `Cc1ncnc2c1CCN(Cc1ccccn1)CC2.O=C(O)C(F)(F)F.O=C(O)C(F)(F)F` | 17.32 | 15.66 |
| `CCc1c(C)nc2cc(C3CCN(Cc4ccncc4C)C3)nn2c1O` (stereo unspecified) | -11.53 | -14.6 |
| `CN1C(=O)CCC12CCN(c1ccc(C#N)cn1)CC2.O=C(O)C(F)(F)F` | -0.9125 | 9.251 |
| `CCN1CCC2(C1)CN(S(=O)(=O)c1cn(C)cn1)C2.O=C(O)C(F)(F)F.O=C(O)C(F)(F)F` | -22.73 | 30.06 |
| `CN1CCN(C(=O)CCc2ccccc2)Cc2cccnc21.O=C(O)C(F)(F)F` | 5.485 | -13.55 |
| `CC(C)(C)n1cc(C2=CCN(CCNC(=O)c3ccccc3)CC2)cn1` | -13.93 | 16.2 |
| `COCC(c1ccccn1)N(C)C(=O)c1cc(-c2ccc(O)cc2)n[nH]1` (stereo unspecified) | -2.377 | 16.45 |
| `CCCc1nc(C)c(C(=O)NC2CCN(C3CC3)C2)s1` (stereo unspecified) | -10.59 | 19.63 |
| `CC(CCc1ccccc1)CC(=O)NC1CCN(CC(N)=O)CC1` (stereo unspecified) | 4.843 | 19.83 |
| `CCc1nc(C2CCCN2C(=O)c2cnc[nH]2)no1` (stereo unspecified) | 5.356 | 15.14 |
| `Cc1ccccc1N1CCCN(C(=O)CC2CN(C(C)C)CCO2)CC1` (stereo unspecified) | 28.82 | -3.02 |
| `COCCNC(=O)NCCc1cccc(OC)c1O` | 0.947 | -16.38 |

The first 5 entries again:

compound	Toxoplasma	Leishmania in macrophages
[H][C@]12CN(C(=O)c3cnn(C)c3)CC[C@@]1(O)CCN(C(=O)C1CCCC1)C2	2.872	-1.278
O=C1COc2ccc(C(=O)NS(=O)(=O)c3ccc(F)cc3F)cc2N1	-3.076	8.57
Clc1ccc(CN2CCCC2Cn2cncn2)c2ncccc12 (stereo unspecified)	-16.78	20.31
CC(C#N)CNC(=O)Nc1ccc(-c2ccc[nH]2)cc1 (stereo unspecified)	5.609	25.85
O=C(c1cncnc1)N1CCCC(c2nccs2)C1 (stereo unspecified)	-22.98	22.74

From ChEMBL document CHEMBL3988442, “University of Dundee, Small-Polar-MMV Screening Library” (2021).